# Primary screen of a compound library

By UniProt entry, the sequences of proteins in these tests, tags left out.
UniProt P9WPC5, whole entry: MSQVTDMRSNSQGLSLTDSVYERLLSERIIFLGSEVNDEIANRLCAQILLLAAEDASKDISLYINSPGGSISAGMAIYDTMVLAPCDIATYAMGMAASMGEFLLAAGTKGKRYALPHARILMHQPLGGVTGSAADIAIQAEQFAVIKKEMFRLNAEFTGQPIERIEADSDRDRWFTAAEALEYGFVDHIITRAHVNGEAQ
UniProt P9WPC3, whole entry partner: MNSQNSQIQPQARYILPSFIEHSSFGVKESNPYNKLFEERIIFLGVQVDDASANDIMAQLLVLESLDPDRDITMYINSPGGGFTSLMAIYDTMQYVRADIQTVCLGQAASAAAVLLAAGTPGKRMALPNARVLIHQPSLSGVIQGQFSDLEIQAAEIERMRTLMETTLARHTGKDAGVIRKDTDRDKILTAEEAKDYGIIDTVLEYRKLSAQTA
UniProt I6X8D2, whole entry: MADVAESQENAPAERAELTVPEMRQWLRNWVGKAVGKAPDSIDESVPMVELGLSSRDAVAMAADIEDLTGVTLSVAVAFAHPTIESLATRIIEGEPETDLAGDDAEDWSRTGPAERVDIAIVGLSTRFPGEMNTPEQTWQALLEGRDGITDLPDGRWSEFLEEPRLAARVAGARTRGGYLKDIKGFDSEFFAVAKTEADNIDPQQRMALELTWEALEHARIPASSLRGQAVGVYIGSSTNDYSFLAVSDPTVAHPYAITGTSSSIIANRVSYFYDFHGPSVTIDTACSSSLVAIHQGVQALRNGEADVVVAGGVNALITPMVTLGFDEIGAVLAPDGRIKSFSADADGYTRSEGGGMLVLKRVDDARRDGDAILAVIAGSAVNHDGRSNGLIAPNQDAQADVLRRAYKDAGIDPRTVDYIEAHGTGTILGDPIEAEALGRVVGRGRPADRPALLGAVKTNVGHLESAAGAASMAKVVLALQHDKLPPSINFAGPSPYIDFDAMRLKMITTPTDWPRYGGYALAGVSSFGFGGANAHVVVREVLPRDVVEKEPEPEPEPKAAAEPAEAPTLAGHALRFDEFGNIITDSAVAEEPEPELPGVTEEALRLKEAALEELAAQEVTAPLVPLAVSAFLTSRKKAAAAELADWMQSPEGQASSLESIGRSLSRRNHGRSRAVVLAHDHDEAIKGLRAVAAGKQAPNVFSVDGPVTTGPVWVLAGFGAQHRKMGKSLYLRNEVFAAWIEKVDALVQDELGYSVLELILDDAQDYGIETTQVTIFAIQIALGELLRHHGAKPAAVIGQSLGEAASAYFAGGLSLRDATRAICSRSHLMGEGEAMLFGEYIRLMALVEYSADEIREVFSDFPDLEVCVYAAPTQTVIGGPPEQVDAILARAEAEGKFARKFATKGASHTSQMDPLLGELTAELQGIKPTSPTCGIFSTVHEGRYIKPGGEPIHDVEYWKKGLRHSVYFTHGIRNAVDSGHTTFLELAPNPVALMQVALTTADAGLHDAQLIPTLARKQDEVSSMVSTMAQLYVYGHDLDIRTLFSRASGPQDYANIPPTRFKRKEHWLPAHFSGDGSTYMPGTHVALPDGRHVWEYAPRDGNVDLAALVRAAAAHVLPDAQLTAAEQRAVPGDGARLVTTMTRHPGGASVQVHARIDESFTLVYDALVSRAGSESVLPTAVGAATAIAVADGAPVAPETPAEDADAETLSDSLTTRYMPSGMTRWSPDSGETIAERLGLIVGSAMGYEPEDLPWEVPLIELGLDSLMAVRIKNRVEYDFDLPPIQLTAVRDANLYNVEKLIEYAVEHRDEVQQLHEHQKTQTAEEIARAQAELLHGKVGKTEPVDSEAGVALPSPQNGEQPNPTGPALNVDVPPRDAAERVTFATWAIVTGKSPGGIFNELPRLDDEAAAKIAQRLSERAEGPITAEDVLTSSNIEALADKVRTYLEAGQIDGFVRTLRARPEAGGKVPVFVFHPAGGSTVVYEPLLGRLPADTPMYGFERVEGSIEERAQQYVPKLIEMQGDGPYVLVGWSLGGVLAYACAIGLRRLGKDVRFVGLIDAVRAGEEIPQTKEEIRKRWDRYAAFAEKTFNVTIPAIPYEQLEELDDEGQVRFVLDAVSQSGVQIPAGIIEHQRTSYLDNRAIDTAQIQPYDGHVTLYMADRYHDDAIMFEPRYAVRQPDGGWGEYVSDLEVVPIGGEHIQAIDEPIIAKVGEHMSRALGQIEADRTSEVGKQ

Source: ChEMBL document CHEMBL3988442, “University of Dundee, Small-Polar-MMV Screening Library” (2021).

Leishmania in macrophages: 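Cell assay of Leishmania donovani living inside macrophages; the read-out is not stated. Tested at 30 µM. Higher reads as stronger inhibition (inferred: compounds with an IC50 in retests scored well above the rest). About 69,000 compounds were tested under these conditions; 1.5% (about 1,000) showed 50% or more at least once.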
Toxoplasma: 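Assay of Toxoplasma gondii numbers, read through their beta-galactosidase reporter with a colour substrate. Tested at 10 µM. The record gives no direction; the compounds picked for IC50 retests had high values, so higher reads as fewer parasites. Of about 67,000 compounds tested this way, about 260 (0.38%) reached 50% or more in at least one test.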
ClpP1P2: 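Protease assay of ClpP1P2, read by the AMC dye that it sets free. Target: ClpP1P2, Mycobacterium tuberculosis (UniProt P9WPC5 and UniProt P9WPC3). Concentration: 50 µM. Higher reads as stronger inhibition, judged from the few compounds that gave an IC50. Most other retested compounds had strongly negative values. Of about 69,000 compounds tested this way, about 10 (0.015%) reached 50% or more in at least one test.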
T. brucei: 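Whole-parasite assay of Trypanosoma brucei over 72 hours; the read-out is not stated. Concentration: 30 µM. Higher reads as stronger inhibition (inferred: compounds with an IC50 in retests scored well above the rest). Values scatter widely below zero; nearly all retest evidence comes from the higher of the two concentrations used. Size under these conditions: about 64,000 compounds, about 940 of them at 50% or above in at least one test.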
Pks13 thioesterase: 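Polyketide synthase Pks13, Mycobacterium tuberculosis (UniProt I6X8D2). Enzyme assay of the thioesterase domain of polyketide synthase 13; the read-out is not stated. Concentration: 30 µM. The record gives no direction; the compounds picked for IC50 retests had high values, so higher reads as stronger inhibition. Of about 67,000 compounds tested this way, about 300 (0.46%) reached 50% or more in at least one test.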

The filed quantity is “Percent Effect” (%).
The controls that fix the scale are not given in the record; negative values are as filed.
Compounds were drawn at random from those tested, without regard to their results.
Two or more numbers in one place are separate tests of the same structure; such repeats can differ widely.
A dash means the value is not listed here; it may have been measured.

compound,Leishmania in macrophages,Toxoplasma,ClpP1P2,T. brucei,Pks13 thioesterase
COCC1CCCCN1Cc1nc(-c2ccoc2)oc1C (stereo not given),11.78,1.217,-22.61,-31.11,-10.79
CC(C)CN1C(=O)C2(CCN(Cc3cccs3)C2)c2ccccc21.O=C(O)C(F)(F)F (stereo not given),1.991,16.68,-,25.84,-
Cc1ncc2c(n1)CN(Cc1nc3ccccc3o1)CC2,7.804,-6.092,-11.02,-8.264,-1.342
COc1ccc2c(ccn2CCCN)c1,-,-,-13.95,-,-21.25
C=C(C)CNC(=O)C1CCCN(C2CCN(C(C)C)CC2)C1 (stereo not given),26.23,-13.2,-16.04,-1.006,-3.856
CCOCC1CN(S(=O)(=O)N(C)C)Cc2cnn(CC3CC3)c21.O=C(O)C(F)(F)F (stereo not given),-4.587,4.14,-,-18.48,-
CN1C(=O)CCc2cc(NS(=O)(=O)Cc3cccc(F)c3)ccc21,-1.688,0.1836,4.193,-6.123,-12.25
CCn1c(Cn2cncn2)nnc1C1CCN(C[C@H]2[C@@H]3CNC[C@@H]32)CC1,-,-,-5.746,-,-3.591
COc1cc(C(=O)O)cc(I)c1OCC(=O)NCCc1ccccc1,-3.463,3.226,-12.49,-8.995,17.93
Cc1ccc(CS(=O)(=O)CC(=O)NCCCOC(C)C)cc1,10.61,6.038,3.322,-,5.094
Cc1nn(C)c2c(=O)n(CC(=O)NCCN3CCCCCC3)ccc12,-10.47,7.008,-13.75,13.32,-2.054
Cc1cc(C(=O)N2CCNC(=O)C2)c(C)n1Cc1ccccn1,-13.06,0.183,8.782,-66.78,3.007
CCCC1(CO)CCCN(C(=O)CN2CCN(CC)CC2)C1 (stereo not given),28.47,2.211,6.181,-8.184,5.784
O=C(COCCOc1ccccc1)NC1CCN(C(=O)C2CC2)CC1,-11.23,3.181,1.583,-8.739,-12.43
CN1CCc2onc(CNc3ncccn3)c2C1,-,-,-0.01968,-,-0.6854
COC(=O)CN(CC1CCOC1)C1CC1 (stereo not given),5.642,-6.338,4.325,-9.88,-34.58
Cc1cnn(CC2CN(c3ncnc4[nH]ccc34)CCO2)c1 (stereo not given),4.128,-35.62,-5.198,-8.135,-3.251
CC(C)=Cc1c(-c2ccccc2)ncn1CCN(C)S(C)(=O)=O,-8.997,6.723,-0.003502,-27.34,-25.69
Cc1nncn1CCNC(=O)C(C)(C)c1cccc(F)c1,19.07,2.881,4.394,5.669,-11.28
Cc1nn(Cc2ccc(F)cc2)c2[nH]nc(N)c12,17.35,-1.138,1.278,-28.07,-0.5691
O=C(O)C(F)(F)F.[H][C@]12CCN(c3ncccn3)[C@@]1([H])CCC(COCC(=O)N1CCCC1)O2 (stereo not given in full),24.43,12.06,-,-11.45,-
COc1nn(C)cc1C(=O)NCC(=O)NCc1ccccn1,6.038 and 5.623,12.23,2.759,6.775,-8.621
Cc1noc(-c2ccc(N(C)Cc3cccnc3)nc2)n1,-4.134,-1.856,-7.34,-52.6,4.716
COCc1cc(N2CCOC(c3ccc(Cl)cc3)C2)ncn1 (stereo not given),15.44,9.23,-8.649,-54.58,-5.662
CSc1ccccc1C(=O)N1CCN(C)C2(CCC(=O)N(C)CC2)C1 (stereo not given),13.51,-11.28,-6.916,-2.889,-21.98
Cc1cccc(CN2Cc3[nH]nc(COCCO)c3C2)n1.O=C(O)C(F)(F)F,-44.22 and -1.854,-2.898,-,-27.78,-
Cc1cccc(CN2C[C@@H]3COC[C@]3(CNC(=O)c3ccccc3)C2)n1,-,-,7.702,-,-2.186
CCc1nc(C2CCCN2CCc2ccccn2)no1 (stereo not given),18.97,-19.47,8.783,-24.32,-10.91
COCC(=O)N1CC(c2csc(NC(C)=O)n2)C1,12.12,15.76,-16.21,-6.936,9.361
COC(=O)N1CCCN(C(=O)NC2CCc3ccccc3C2)CC1 (stereo not given),6.635,0.8125,-2.524,7.129,-37.56
Cc1cc(C(=O)N2CCC3(CC2)CC(c2cccnc2)C(=O)N3C)no1 (stereo not given),-,-,6.617,-,-35.09
CCOC(=O)C1(O)CCN(C(=O)Nc2ccc(CC)cc2)CC1,18.51,-6.409,-3.135,13.61,-
CN(Cc1cccc(OCCO)c1)Cc1cccc2ncccc12,37.97,16.63,-1.767,-12.73,-44.79
N[C@@H]1c2ccccc2C2(CCN(c3cnc4ccccc4n3)CC2)[C@H]1O,-35.85,-11.68,-29.25,-18,11.48
CNC(=O)c1csc(-c2ccoc2)n1,9.901,-3.229,1.85,9.402,-15.04
CC1c2ncc(CNC(=O)C3CC3)n2CCN1Cc1cnn(C)c1 (stereo not given),-,-,9.886,-,-16.32
CCc1noc(CCC(=O)N2CCC(c3ccn[nH]3)C2)n1 (stereo not given),6.561,8.779,10.52,-16.01,-33.9
CCC(=O)N1CCC2(CCN(Cc3cccc(F)c3)CC2)CC1,-,-,-9.159,-,-30.66
[H][C@@]12CN(CC3CC3)CCO[C@]1([H])CN(C(=O)c1ocnc1C)C2,2.845,-0.8207,-,-54.66,-
CC(=O)c1c(C)nn(S(=O)(=O)c2ccc(C)cc2)c1C,15.76,25.46,-1.019,-18.74,-14.56
CC(C)c1cc(C(=O)NCC2CCCN(C(C)C)C2)n(C)n1 (stereo not given),-,-,-16.11,-,6.993
Cc1cc(NCCS(C)(=O)=O)n2nc(C)cc2n1,3.73,6.065,-1.781,-5.159,-17.56
COC[C@@H]1CC[C@H]2[C@H](CCN2S(=O)(=O)c2cccc(F)c2)O1,-,-,16.03,-,45.88
Cc1cc(S(C)(=O)=O)c(C)c(S(=O)(=O)N2CCN(C)CC2)c1,10.48,-27.53,1.568,-20.65,28.59
CC(Cn1cc(Br)cn1)C(=O)Nc1ccc(Cl)cn1 (stereo not given),-88.88,7.721,-14.62,-,10.48
CC(=O)N(C)C1CCN(C(=O)NCC(C)Cc2cccs2)CC1 (stereo not given),-8.202,-7.679,5.076,-6.288,-17
COCCN1CCO[C@H]2CN(C(=O)c3ccncc3F)C[C@H]21,-,-,0.0175,-,-22.68
CC(C)Nc1ccnc(N2Cc3cnc(C(C)(C)C)nc3C2)n1,17.76,-2.978,-11.31,-43.35,-38.18
CCOCC1c2c(ncn2C)CCN1C(=O)c1cnc(C)cn1 (stereo not given),-,-,-6.862,-,-10.74
COCCC1CCCCN1Cc1nc(C2CC2)no1 (stereo not given),5.617,-9.051,3.526,-24.3,-27.42
Nc1cc(-c2c[nH]nc2C2CCCN2S(=O)(=O)c2ccccc2)ccn1 (stereo not given),38.86,31.15,3.586,-9.354,-24.11
COc1ccc(N2CCC(NCc3csc(C(C)C)n3)CC2)cc1,-14.09,-11.06,1.433,-9.739,8.053
O=C(O)C(F)(F)F.O=C(O)C(F)(F)F.[H][C@@]12CN(Cc3ccncc3)C[C@H](C(=O)N3CCCCO3)[C@]1([H])CCO2,11.25,3.818,-,-2.471,-
Cc1ncsc1C(=O)NCc1cccnc1N(C)CCc1ccccn1,18.47,-6.874,-3.302,6.682,-11.44
COc1ccc(F)c(-c2cc(NCCO)nc(N)n2)c1,20.98,0.663,-13.75,-13.14,-34.22
CC(C)(CN)NS(=O)(=O)c1c(F)cccc1F.Cl,3.342,-0.2378,-,-77.35,-
Cc1nc(Nc2ncccn2)cc(C2CCCN2C2CCOCC2)n1 (stereo not given),-9.446,3.908,-1.08,15.96,-49.5
CS(=O)(=O)NCc1cn2c(n1)CN(C(=O)c1ccc[nH]1)CC2,9.847,2.607,5.373,19.65,-26.62
CC(C)CC(=O)NCCCc1cc(N)n(-c2ccccc2)n1,6.504,13.2,11.36,-23.13,-14.34

Repeated from the top, 5 entries:

| compound | Leishmania in macrophages | Toxoplasma | ClpP1P2 | T. brucei | Pks13 thioesterase |
|---|---|---|---|---|---|
| `COCC1CCCCN1Cc1nc(-c2ccoc2)oc1C` (stereo not given) | 11.78 | 1.217 | -22.61 | -31.11 | -10.79 |
| `CC(C)CN1C(=O)C2(CCN(Cc3cccs3)C2)c2ccccc21.O=C(O)C(F)(F)F` (stereo not given) | 1.991 | 16.68 | - | 25.84 | - |
| `Cc1ncc2c(n1)CN(Cc1nc3ccccc3o1)CC2` | 7.804 | -6.092 | -11.02 | -8.264 | -1.342 |
| `COc1ccc2c(ccn2CCCN)c1` | - | - | -13.95 | - | -21.25 |
| `C=C(C)CNC(=O)C1CCCN(C2CCN(C(C)C)CC2)C1` (stereo not given) | 26.23 | -13.2 | -16.04 | -1.006 | -3.856 |